Measurements from US11389415B2, “Methods of regulating cannabinoid receptor activity-related disorders and diseases” (The United States of America as represented by the …, priority 2012, dated 2022).
For at least one compound, name, drawing or mass did not settle the structure.

System: HepG2 cells
Assay: cAMP accumulation in HepG2 cells
Format: cell-based, human
Details: β-agonists at 10 μM
Method: cAMP Accumulation. HepG2 cells were seeded in 96-well plates and grown to confluency. […] The levels of cAMP accumulated in cells were determined and normalized to the amount of protein per well.

## C=C[C@@]1(C)CC(=O)[C@]2(O)[C@@]3(C)[C@@H](O)CCC(C)(C)[C@@H]3[C@H](O)[C@H](OC(C)=O)[C@@]2(C)O1 [forskolin]
  cAMP production: induced significant accumulation of cAMP
